Structures can show the parent of a compound that is named as a salt. ± gives the standard deviation of the averaged measurements. The list shows a part of the results. These are raw signals, not scaled to a control.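 The yeast community starts from one strain carrying four plasmids, each with an amino-acid or uracil synthesis gene and a fluorescent protein. Random plasmid loss creates mixed prototroph and auxotroph subpopulations. Cells were fixed and counted by automated confocal fluorescence imaging, and DMSO-treated wells served as the vehicle reference.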
system: Saccharomyces cerevisiae BY4741 SeMeCo community; test: imaged cell count per well (cells); higher = more cells; settings: 10 µM; 24 h; SM minimal medium
Method: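 Same SeMeCo high-content imaging drug screen: Selleck FDA-approved drugs at 10 µM, 24 h in SM medium, 384-well plates, 3 replicates.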

Structure (SMILES)	imaged cell count per well
CN[C@H](CC(C)C)C(=O)N[C@H]1C(=O)N[C@@H](CC(N)=O)C(=O)N[C@H]2C(=O)N[C@H]3C(=O)N[C@H](C(=O)N[C@H](C(=O)O)c4cc(O)cc(O)c4-c4cc3ccc4O)[C@H](O)c3ccc(c(Cl)c3)Oc3cc2cc(c3O[C@@H]2O[C@H](CO)[C@@H](O)[C@H](O)[C@H]2O[C@H]2C[C@](C)(N)[C@H](O)[C@H](C)O2)Oc2ccc(cc2Cl)[C@H]1O [Vancomycin]	22600 ± 5500
CNCC[C@H](Oc1cccc2ccccc12)c1cccs1 [Duloxetine HCl]	21800 ± 7300
CN1CCN(C2=Nc3cc(Cl)ccc3Nc3ccccc32)CC1 [Clozapine]	24500 ± 2600
CCOc1cc(NC(C)=O)ccc1C(=O)OC [Ethopabate]	17100 ± 12000
CCN(CC)C(=O)N1CCN(C)CC1 [Diethylcarbamazine citrate]	22100 ± 3400
CCCCOC(=O)c1ccc(O)cc1 [Butylparaben]	25500 ± 6100
COc1ccc([C@@H]2Sc3ccccc3N(CCN(C)C)C(=O)[C@@H]2OC(C)=O)cc1 [Diltiazem HCl]	22200 ± 4400
CCOC(=O)C1=C(COCCN)NC(C)=C(C(=O)OC)[C@@H]1c1ccccc1Cl [Levamlodipine]	27100 ± 4600
CCC1=C(C)CN(C(=O)NCCc2ccc(S(=O)(=O)NC(=O)N[C@H]3CC[C@H](C)CC3)cc2)C1=O [Glimepiride]	23200 ± 3600
CCS(=O)(=O)CCn1c([N+](=O)[O-])cnc1C [Tinidazole]	27300 ± 1700
CO[C@H]1O[C@@H]2O[C@@]3(C)CC[C@H]4[C@H](C)CC[C@@H]([C@H]1C)[C@@]24OO3 [Artemether]	20300 ± 3200

Pulled by structure from the list above:
Structure (SMILES)	imaged cell count per well
CCS(=O)(=O)CCn1c([N+](=O)[O-])cnc1C [Tinidazole]	27300 ± 1700
CCCCOC(=O)c1ccc(O)cc1 [Butylparaben]	25500 ± 6100
